Assay results reported in PubChem BioAssay AID1439 (NMMLSC, 2008).
Hit rate of the full screen: of about 220,000 compounds, about 770 (0.35%) were called active. The inconclusive results got no clear call from the source; some entries with a clear call stand among them for comparison. Cut-off read from the data, not from the text of the source: active = binding response below about 49% or above about 150%; inconclusive = no clear call, values can overlap the other calls; inactive = in between.

Sequences of proteins named here, by UniProt entry; tags and fusion partners are left off.
UniProt P09471, whole entry, looked up: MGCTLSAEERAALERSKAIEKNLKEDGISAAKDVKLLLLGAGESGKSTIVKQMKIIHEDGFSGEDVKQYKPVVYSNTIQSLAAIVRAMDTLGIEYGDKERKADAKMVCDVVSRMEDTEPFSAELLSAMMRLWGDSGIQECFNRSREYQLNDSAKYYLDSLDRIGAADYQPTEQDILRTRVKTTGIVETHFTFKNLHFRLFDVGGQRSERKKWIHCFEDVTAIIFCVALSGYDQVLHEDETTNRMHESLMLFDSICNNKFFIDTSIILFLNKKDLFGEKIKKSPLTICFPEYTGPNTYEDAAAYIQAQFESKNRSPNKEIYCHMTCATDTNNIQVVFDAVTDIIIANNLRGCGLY

These molecules were tested against Guanine nucleotide-binding protein G(o) subunit alpha (Homo sapiens) (UniProt P09471) (assay: RGS7-Galphao binding modulators, primary screen, biochemical, multiplexed bead flow cytometry (AID 1439;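 note: fluorescent Galphao held in activated GDP-AlF4 state binding bead-coupled RGS7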)). Conditions: at 10 µM, actives lie on both sides.

Compound	binding response (% of control)
C/C(=N/NC(=O)CN1CCN(S(=O)(=O)c2ccc(C)cc2)CC1)c1ccco1	inconclusive: 359%
Cc1nc(-c2nnc(SCC(=O)Nc3ccc(C(F)(F)F)cc3)n2C)cs1	inconclusive: 98.4%
COc1ccc2[nH]c(C)c(C(=O)CN(C)CC3OCCO3)c2c1	inconclusive: 82.5%
O=C(COC(=O)c1ccccc1OCC(=O)Nc1ccc(Br)cc1)Nc1ccccc1	inactive: 93%
CC(C)(O)C#Cc1ccc(C(=O)N2CCN(c3ccc([N+](=O)[O-])cc3)CC2)cc1	inconclusive: 130%
Cc1ccc(-c2nnc(SCC(=O)N/N=C/c3ccc(C)s3)n2-c2ccc(C)cc2)cc1	inactive: 105%
CC(NC(=S)NCc1ccc(F)cc1)C12CC3CC(CC(C3)C1)C2 (configuration not stated)	inactive: 100%
COCCNC(=O)C1CC2Cn3c(nc4cc(Cl)c(Cl)cc43)C2N1C (configuration not stated)	inconclusive: 75.3%
CN1CCN(C(=O)C23CCC(C)(C(=O)C2Br)C3(C)C)CC1 (configuration not stated)	inconclusive: 113%
Cc1noc(C)c1COc1ccc(C(=O)OCC(=O)Nc2cccc(S(=O)(=O)N3CCOCC3)c2)cc1	inactive: 100%
O=C(NCc1ccncc1)c1cc(C(=O)C2CCCCC2)c[nH]1	inconclusive: 105%
CN(C)CCCNC(=O)c1cc(S(=O)(=O)N2CCOCC2)ccc1F	inactive: 141%
O=CN1CCN(C(C(=O)NC2CCCC2)c2cc3c(cc2[N+](=O)[O-])OCO3)CC1 (configuration not stated)	inconclusive: 114%
COC(=O)N/N=C/c1ccc(-c2ccccc2Cl)o1	inconclusive: 84.9%
CCOC(=O)C(c1ccccc1)C(Nc1ccc(Cl)c(Cl)c1)c1ccccn1 (configuration not stated)	inconclusive: 208%
COc1ccc(CCn2c(=O)[nH]c3cc(C(=O)NCCCN4CCOCC4)ccc3c2=O)cc1OC	inconclusive: 102%
O=C(CCCCCCCCCCC(=O)NCc1cccnc1)NCc1cccnc1	inconclusive: 80.1%
Cc1cc2nc(-c3ccc(SCC(=O)Nc4ccc5c(c4)OCCO5)nc3)[nH]c2cc1C	inactive: 109%
Cc1ccc(NC(=O)CO/N=C(\N)c2nonc2N)cc1C	inactive: 92.2%

Five of the compounds above, in CSV form:
Compound,binding response (% of control)
Cc1ccc(-c2nnc(SCC(=O)N/N=C/c3ccc(C)s3)n2-c2ccc(C)cc2)cc1,inactive: 105%
CN1CCN(C(=O)C23CCC(C)(C(=O)C2Br)C3(C)C)CC1 (configuration not stated),inconclusive: 113%
CN(C)CCCNC(=O)c1cc(S(=O)(=O)N2CCOCC2)ccc1F,inactive: 141%
CCOC(=O)C(c1ccccc1)C(Nc1ccc(Cl)c(Cl)c1)c1ccccn1 (configuration not stated),inconclusive: 208%
O=C(CCCCCCCCCCC(=O)NCc1cccnc1)NCc1cccnc1,inconclusive: 80.1%

Remaining list, next part

Compound	binding response (% of control)
COc1ccc(C(=O)CNc2ccc(C)cc2C)cc1	inconclusive: 121%
COc1ccc(NS(=O)(=O)c2cc([N+](=O)[O-])ccc2N/N=C\c2c(C)[nH]c3ccccc23)cc1	inactive: 136%
CCOC(=O)c1ccc(Oc2ccc(C(F)(F)F)cn2)cc1	inconclusive: 126%
Cc1ccc(C(=O)N(CC(=O)NC2CCCC2)c2ccccc2C)s1	inconclusive: 110%
CCCOc1ccc(CCC(=O)N/N=C/c2ccncc2)cc1	inconclusive: 95.5%
Cc1nnc(SCC2=C(C(=O)O)N3C(=O)C(NC(=O)C(C)n4nc(C(F)(F)F)cc4C)C3SC2)s1 (configuration not stated)	inactive: 108%
COc1ccccc1N1CCN(CC(=O)Nc2ccc3c(c2)OCCO3)CC1	inconclusive: 108%
C=CCC(CC=C)(C(N)=O)c1ccccc1	inconclusive: 106%
CC(=O)N1CCc2cc(N=NC3=C(O)CC(C)(C)CC3=O)ccc21	inconclusive: 88.8%
NC(=O)COC(=O)c1c2c(nc3ccccc13)CCC2	inconclusive: 91.4%
O=C(NCc1ccc(Cl)cc1)C1CCC(CNc2c(N3CCCC3)c(=O)c2=O)CC1 (configuration not stated)	inconclusive: 89.4%
COc1cc(C(=O)OCC#N)ccc1OCc1c(C)noc1C	inconclusive: 91.3%
COc1cc(/C=N/N2C(C)CCCC2C)cc(Br)c1O (configuration not stated)	inconclusive: 126%
O=C(N/N=C/c1ccc(C(F)(F)F)cc1)c1ccc(O)cc1	inconclusive: 88.5%
COc1ccc(C2/C=C\CN(S(=O)(=O)c3ccc(C)cc3)CC(=O)N2Cc2ccc(F)cc2)cc1 (configuration not stated)	inconclusive: 94.8%
CSc1nnc(C(C)(C)C)c(=O)n1/N=C/c1ccc(C(C)C)cc1	inconclusive: 37.3%
Nc1c(Cl)cc(Cl)cc1C(=O)OCC(=O)N1CCCC1	active: 9.66%
CCOc1ccc(CNC(=O)CCc2cn(C)c3ccccc23)cc1OC	inconclusive: 103%
COc1ccccc1NS(=O)(=O)c1cccc2nsnc12	inconclusive: -40.7%

Compound	binding response (% of control)
CCn1cc(S(=O)(=O)CC(=O)Nc2cccc(C)c2)c2ccccc21	inconclusive: 116%
COc1ccc(CNc2oc(-c3cccc4ccccc34)nc2P(=O)(OC)OC)cc1	inconclusive: 128%
Clc1cc(Cl)cc(Nc2ncnc(-n3cccc3)n2)c1	inconclusive: 45.8%
NC(=O)c1cccc2ccccc12	inconclusive: 84.4%
CCOC(=O)c1sc(NC(=O)OC)c(C(=O)OC)c1C	inconclusive: 98.4%
CC1=C(C(=O)c2ccccc2)C(c2ccc(O)cc2)NC(=S)N1 (configuration not stated)	inconclusive: 54%
CC1Cc2ccccc2N1C(=S)NC(=O)c1ccco1 (configuration not stated)	inconclusive: 115%
O=C(Nc1ncc2c(n1)-c1ccccc1CC2)C1CC1	inconclusive: 110%
C/C(=N/NC(=O)CC(=O)N/N=C(\C)c1ccc([N+](=O)[O-])cc1)c1ccc([N+](=O)[O-])cc1	inconclusive: 113%
CC(Sc1cccc[n+]1[O-])C(=O)Nc1ccc(Oc2ccccc2)cc1 (configuration not stated)	inactive: 98.7%
CC(=O)Nc1cc(NC(C)=O)ncn1	inconclusive: 126%
Cc1cc(=O)n2c(n1)NC(Nc1cccc(C)c1C)=NC2c1ccc(F)cc1 (configuration not stated)	inconclusive: 82.9%
O=C(COC(=O)c1cc(=O)[nH]c2ccccc12)NCc1cccs1	inconclusive: 191%
COc1ccc(C(=O)NC(=S)NNC(=O)c2ccc3ccccc3n2)cc1	inconclusive: 231%
COc1ccc(/C=N/S(=O)(=O)c2ccccc2)cc1OC	inconclusive: 114%
Cc1ccc(CN(Cc2cccnc2)C(=S)Nc2cccc(Cl)c2C)cc1	inconclusive: 102%
O=C(CSc1n[nH]c(=O)[nH]c1=O)N/N=C/c1ccccc1	inactive: 93.5%
COc1ccc([N+](=O)[O-])cc1NS(=O)(=O)c1cc(C(=O)O)ccc1OC	inconclusive: 125%
CS(=O)(=O)NCCNC(=O)c1cc(OCC(F)(F)F)ccc1OCC(F)(F)F	inconclusive: 134%
